Reference: PubChem BioAssay AID1347075 (National Center for Advancing Translational Sciences (NCATS), 2019)
The whole screen tested about 400,000 compounds, of which about 5,500 (1.4%) were called active. Inconclusive means that the source gave no clear call. Such entries were picked first, then a sample of the others. The call rests on the fitted dose curve; in most records, active means well fitted cell-killing curve with a large enough effect; inconclusive means small, poorly fitted or top-dose-only effect, or effect the other way; inactive means flat fitted curve, though single readings scatter. Potencies of inconclusive entries are doubtful fits and often do not repeat.

test: qHTS assay for MDR1-selective chemotherapeutics: Primary screen using the parental adenocarcinoma cell KB-3-1; conditions: KB-3-1 viability, CellTiter-Glo ATP luminescence, 72 h; activity change, negative = cytotoxic: at 46.1 µM (top of the series); further: nearly all actives have a fitted effect of over 60% in size
Method in brief: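 Multi-concentration cytotoxicity screen in KB-3-1 cells grown in DMEM lacking phenol red with 10% FBS. After 72 h at 37 °C with compound, ATP-dependent luminescence was recorded.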
On the % scale 0 is the no-effect control and ±100 the full control effect; potency means the concentration at half of the fitted maximal effect.

Structure (SMILES)	Potency	activity change, negative = cytotoxic
O=C(CSc1nnnn1-c1ccccc1)CC(=O)Nc1ccc(Cl)cc1	inconclusive: 29.1 µM [cytotoxic, single point]	
O=S(=O)(NCc1ccc(F)cc1)c1ccc(-n2cccn2)cc1	inactive	
O=C(c1cccc(Cl)c1)N1CCC(=O)N([C@H](COCc2cccc(Cl)c2)Cc2ccccc2)CC1	inconclusive: 29.1 µM [cytotoxic, single point]	
C(=N\Nc1nc(Nc2ccccc2)nc(N2CCOCC2)n1)/c1c[nH]c2ccccc12	inconclusive: 29.1 µM [cytotoxic, single point]	
Cc1ccc(S(=O)(=O)N2C[C@H]3N(C(=O)OC(C)C)N(C(=O)OC(C)C)C[C@H](OC(=O)NC4CC4)[C@@]3(O)C2)cc1	inactive	
CCN(CC(=O)Nc1cc(Cl)ccc1C)C(=O)C1CCN(c2ncnc3sc(C)c(C)c23)CC1	inconclusive: 25.9 µM [cytotoxic, partial curve, poor fit]	
O=C(COC(=O)c1ccccc1O)NC1CCCc2ccccc21 (stereo not drawn)	inconclusive: 0.0065 µM [rising, full curve]	
O=C(Nc1ccsc1C(=O)O)c1cccc(Oc2ccccc2)c1	inconclusive: 11.6 µM [cytotoxic, partial curve]	
CCc1ccc(OCCCC(=O)NCc2ccccc2)cc1	inconclusive: 29.1 µM [cytotoxic, single point]	
CCC(=O)Nc1cccc(NC(=O)CSc2nnc(-c3ccc(NS(C)(=O)=O)cc3)n2C)c1	inconclusive: 25.9 µM [rising, single point]	
CCN(CCCNC(=O)C1CCN(S(=O)(=O)N2CCOCC2)CC1)c1cccc(C)c1	inactive	
C/C(N)=C(/C#N)C(=O)CSc1ccc2c(c1)OCCO2	inconclusive: 32.6 µM [cytotoxic, single point]	
CCC(CC)C(=O)N(C)c1c(C)nc2c(OCc3cccc(Cl)c3)cccn12	inconclusive: 29.1 µM [cytotoxic, single point]	
O=C(N/N=C/C(Br)=C\c1ccccc1)c1ccc2nc[nH]c2c1	inconclusive: 9.2 µM [rising, partial curve]	
S=c1[nH]c(-c2ccc(Cl)cc2)cs1	inactive	
CCOC(=O)N1CCN(CCC(=O)Nc2ccc(Br)c(C)c2)CC1	inconclusive: 16.4 µM [cytotoxic, partial curve]	
CN(C)c1ccc(/C=C/c2ccnc3ccc(O)cc23)cc1		inconclusive: -38.7%
CCOC(=O)N1CCN(c2ncc3c(n2)CC(c2ccc(OC)c(OC)c2)CC3=O)CC1 (stereo not drawn)	inconclusive: 16.4 µM [cytotoxic, single point]	

Not a retest: entries from further up.
Structure (SMILES)	Potency	activity change, negative = cytotoxic
O=C(Nc1ccsc1C(=O)O)c1cccc(Oc2ccccc2)c1	inconclusive: 11.6 µM [cytotoxic, partial curve]	
CCc1ccc(OCCCC(=O)NCc2ccccc2)cc1	inconclusive: 29.1 µM [cytotoxic, single point]	
